The text below walks through data of PMC10656488.

Amino acid sequences for entries named in this document (tags omitted). A change or cut given only in a name is not applied to a line headed by its entry. Chains listed by the source or under a name are the forms on record and can include a tag or linker. Residues count along the entry.
heat shock protein 5 (HSPA5) (mouse (endogenous in peritoneal macrophages)) (P20029, residues 20-655): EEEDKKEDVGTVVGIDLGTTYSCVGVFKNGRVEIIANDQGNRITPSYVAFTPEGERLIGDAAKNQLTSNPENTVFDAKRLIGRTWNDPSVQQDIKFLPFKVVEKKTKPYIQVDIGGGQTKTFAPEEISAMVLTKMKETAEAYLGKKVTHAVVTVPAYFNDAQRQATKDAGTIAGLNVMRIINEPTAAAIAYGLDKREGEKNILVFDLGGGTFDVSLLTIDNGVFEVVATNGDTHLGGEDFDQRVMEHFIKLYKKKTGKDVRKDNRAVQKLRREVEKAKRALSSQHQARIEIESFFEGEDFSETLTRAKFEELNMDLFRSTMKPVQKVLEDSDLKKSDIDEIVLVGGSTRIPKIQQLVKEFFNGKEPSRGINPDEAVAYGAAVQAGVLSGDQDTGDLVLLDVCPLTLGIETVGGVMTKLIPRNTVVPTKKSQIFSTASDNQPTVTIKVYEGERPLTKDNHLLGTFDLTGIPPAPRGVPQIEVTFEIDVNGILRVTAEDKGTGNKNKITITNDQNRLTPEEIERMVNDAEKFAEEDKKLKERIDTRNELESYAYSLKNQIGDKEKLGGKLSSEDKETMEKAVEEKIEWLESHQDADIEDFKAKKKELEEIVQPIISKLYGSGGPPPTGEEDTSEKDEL
HSPA5 protein bearing a K327A mutation (P20029, form named): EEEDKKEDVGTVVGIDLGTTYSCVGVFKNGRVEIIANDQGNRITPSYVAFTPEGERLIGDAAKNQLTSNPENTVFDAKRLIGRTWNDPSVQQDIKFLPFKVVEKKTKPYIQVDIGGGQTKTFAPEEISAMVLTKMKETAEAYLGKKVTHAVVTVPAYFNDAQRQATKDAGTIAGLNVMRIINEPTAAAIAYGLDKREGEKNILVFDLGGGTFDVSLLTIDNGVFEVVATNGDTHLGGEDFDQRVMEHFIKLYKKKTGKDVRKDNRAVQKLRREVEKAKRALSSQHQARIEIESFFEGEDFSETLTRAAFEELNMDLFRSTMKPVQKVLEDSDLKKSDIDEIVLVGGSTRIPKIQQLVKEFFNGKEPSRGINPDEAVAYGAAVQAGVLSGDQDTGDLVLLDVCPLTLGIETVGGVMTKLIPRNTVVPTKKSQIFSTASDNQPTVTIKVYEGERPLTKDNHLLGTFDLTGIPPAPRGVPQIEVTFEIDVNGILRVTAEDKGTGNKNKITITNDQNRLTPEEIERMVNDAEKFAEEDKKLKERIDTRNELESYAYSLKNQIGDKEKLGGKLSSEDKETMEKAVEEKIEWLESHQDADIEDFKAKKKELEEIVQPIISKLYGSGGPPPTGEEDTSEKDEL

In test [1] the target is T1, SEPTIN2 (SEPT2) (mouse (endogenous in peritoneal macrophages)), P42208.
T1 chain: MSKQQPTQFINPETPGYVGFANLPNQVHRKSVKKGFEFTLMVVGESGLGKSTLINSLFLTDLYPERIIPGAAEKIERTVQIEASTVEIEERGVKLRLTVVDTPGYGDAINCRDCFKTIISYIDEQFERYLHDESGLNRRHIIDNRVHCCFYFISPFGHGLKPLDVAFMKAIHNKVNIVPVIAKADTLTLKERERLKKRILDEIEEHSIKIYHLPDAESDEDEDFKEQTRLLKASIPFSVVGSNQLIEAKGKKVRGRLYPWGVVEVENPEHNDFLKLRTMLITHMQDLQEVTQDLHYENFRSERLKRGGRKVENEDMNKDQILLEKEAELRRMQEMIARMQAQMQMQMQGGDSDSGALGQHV
Briefly: co-IP; coimmunoprecipitations of SEPT2 or against HSPA5 (Supplementary Fig. 9d, e); cells and antibodies not shown. The settings on record: remark: other sources report otherwise.

Test [2] concerns the target T2, SEPTIN2 (SEPT2) (mouse (endogenous in peritoneal macrophages)) (UniProt P42208).
T2 sequence: T1 chain
Kind of test: native gel or EMSA; native PAGE (Supplementary Fig. 9a); sample not shown. (Mobility shift assays separate free from complexed probe on a gel.)

Another test concerns the target HA- and Myc-tagged SEPT2 (UniProt P42208). Kind of test: co-IP; WT iBMDMs cotransfected with HA- and Myc-tagged SEPT2.
Test [3] has as its target HSPA5 protein (wild type, in vitro systems, ITC and SPR) (UniProt P20029). Briefly: ITC; ITC-binding curve; repeated three times independently; conditions not shown; both purified.
Test [4] has the same target. Briefly: SPR; ATAT1 protein or SCNN1B protein injected over HSPA5 protein; repeated three times independently; both purified. In general terms: In SPR one partner is held on a chip, and binding of the other changes the refractive index at the surface.
For test [5] the target is unchanged. Briefly: in vitro ubiquitination system, interaction analysed by immunoblots; in vitro ubiquitination system; with or without SEPT2 (Supplementary Fig. 8g).
Test [6] concerns the target HSPA5 protein bearing a K327A mutation (UniProt P20029). Described as above.
The target in test [7] is heat shock protein 5 (HSPA5) (mouse (endogenous in peritoneal macrophages)) (UniProt P20029). Kind of test: co-IP.
Test [8] concerns the target T2, SEPTIN2 (SEPT2) (mouse (endogenous in peritoneal macrophages)). Briefly: co-IP; coimmunoprecipitations of SEPT2 or against HSPA5 (Supplementary Fig. 9d, e); cells and antibodies not shown.

These are yes or no findings as the source states them, for the method shown. For some of these results: In cells and extracts the contact can be indirect. Some entries that bind do so weakly or less than the wild type. For some of these results: Sequences can lack the tags named with a protein.

B1: SEPT6, Q9R1T4 1-434 (protein)
chain: MAAADIARQVGEDCRTVPLAGHVGFDSLPDQLVNKSVSQGFCFNILCVGETGLGKSTLMDTLFNTKFEGEPATHTQPGVQLQSNTYDLQESNVGLKLTIVSTVGFGDQINKEDSYKPIVEFIDAQFEAYLQEELKIRRVLHSYHDSRIHVCLYFIAPTGHSLKSLDLVTMKKLDSKVNIIPVIAKSDAISKSELAKFKIKITSELVSNGVQIYQFPTDDESVSEINGTMNAHLPFAVVGSTEEVKIGNKMMRARQYPWGTVQVENEAHCDFVKLREMLIRVNMEDLREQTHARHYELYRRCKLEEMGFKDTDPDSKPFSLQETYEAKRNEFLGELQKKEEEMRQMFVQRVKEKEAELKEAEKELHEKFDRLKKLHQEEKKKLEDKKKCLDEEMNAFKQRKAAAELLQSQGSQAGGSQTLKRDKEKKNNPWLCIE
Take B1: the binding result in test [1] was “binds”.

B2: SEPTIN2 (SEPT2) (protein, UniProt P42208 1-361)
chain: T1 chain
On to B2, for which, in [2], the binding result is “binds”.

B3: HA- and Myc-tagged SEPT2 (protein, UniProt P42208 1-361)
chain: T1 chain
On to B3, for which the binding result in the test with HA- and Myc-tagged SEPT2 is recorded as “binds”.

B4: SCNN1B protein (in vitro ubiquitination system, ITC and SPR) (protein, UniProt Q9WU38 1-638)
chain: MPVKKYLLKCLHRLQKGPGYTYKELLVWYCNNTNTHGPKRIICEGPKKKAMWFLLTLLFACLVCWQWGVFIQTYLSWEVSVSLSMGFKTMNFPAVTVCNSSPFQYSKVKHLLKDLDELMEAVLEKILAPEASHSNTTRTLNFTIWNHTPLVLIDERNPDHPVVLNLFGDSHNSSNPAPGSTCNAQGCKVAMRLCSANGTVCTLRNFTSATQAVTEWYILQATNIFSQVLPQDLVGMGYAPDRIILACLFGTEPCSHRNFTPIFYPDYGNCYIFNWGMTEETLPSANPGTEFGLKLILDIGQEDYVPFLASTAGARLMLHEQRTYPFIREEGIYAMAGTETSIGVLVDKLQRKGEPYSPCTMNGSDVAIKNLYSVYNTTYSIQACLHSCFQDHMIRNCSCGHYLYPLPEGEKYCNNRDFPDWAYCYLNLQMSVTQRETCLSMCKESCNDTQYKMTISMADWPSEASEDWILHVLSQERDQSSNITLSRKGIVKLNIYFQEFNYRTIEESPANNIVWLLSNLGGQFGFWMGGSVLCLIEFGEIIIDFIWITIIKLVASCKGLRRRRPQAPYTGPPPTVAELVEAHTNFGFQPDTTSCRPHGEVYPDQQTLPIPGTPPPNYDSLRLQPLDTMESDSEVEAI
As to B4, the binding entry in [3] was “binds weakly”; in [4], “binds”; in [5], “binds”; in test [6] it was “binds”.

B5: sodium channel epithelial 1 subunit beta (SCNN1B) (protein, UniProt Q9WU38 1-638)
chain: B4 chain
Take B5: the binding entry in test [7] is listed as “binds”.

B6: SEPT9 (protein, UniProt Q80UG5 1-583)
chain: MKKSYSGVTRTSSGRLRRLADPTGPALKRSFEVEEIEPPNSTPPRRVQTPLLRATVASSSQKFQDLGVKNSEPAARLVDSLSQRSPKPSLRRVELAGAKAPEPMSRRTEISIDISSKQVESTASAAGPSRFGLKRAEVLGHKTPEPVPRRTEITIVKPQESVLRRVETPASKIPEGSAVPATDAAPKRVEIQVPKPAEAPNCPLPSQTLENSEAPMSQLQSRLEPRPSVAEVPYRNQEDSEVTPSCVGDMADNPRDAMLKQAPASRNEKAPMEFGYVGIDSILEQMRRKAMKQGFEFNIMVVGQSGLGKSTLINTLFKSKISRKSVQPTSEERIPKTIEIKSITHDIEEKGVRMKLTVIDTPGFGDHINNENCWQPIMKFINDQYEKYLQEEVNINRKKRIPDTRVHCCLYFIPATGHSLRPLDIEFMKRLSKVVNIVPVIAKADTLTLEERVYFKQRITADLLSNGIDVYPQKEFDEDAEDRLVNEKFREMIPFAVVGSDHEYQVNGKRILGRKTKWGTIEVENTTHCEFAYLRDLLIRTHMQNIKDITSNIHFEAYRVKRLNEGNSAMANGIEKEPEAQEM
In the case of B6, the binding entry in test [8] is given as “binds”.

B7: SEPT7 (protein, UniProt O55131 1-436)
chain: MSVSARSAAAEERSVNCGTMAQPKNLEGYVGFANLPNQVYRKSVKRGFEFTLMVVGESGLGKSTLINSLFLTDLYSPEYPGPSHRIKKTVQVEQSKVLIKEGGVQLLLTIVDTPGFGDAVDNSNCWQPVIDYIDSKFEDYLNAESRVNRRQMPDNRVQCCLYFIAPSGHGLKPLDIEFMKRLHEKVNIIPLIAKADTLTPEECQQFKKQIMKEIQEHKIKIYEFPETDDEEENKLVKKIKDRLPLAVVGSNTIIEVNGKRVRGRQYPWGVAEVENGEHCDFTILRNMLIRTHMQDLKDVTNNVHYENYRSRKLAAVTYNGVDNNKNKGQLTKSPLAQMEEERREHVAKMKKMEMEMEQVFEMKVKEKVQKLKDSEAELQRRHEQMKKNLEAQHKELEEKRRQFEEEKANWEAQQRILEQQNSSRTLEKNKKKGKIF
Turning to B7, in test [8], the binding result was “binds”.
